In patent publication EP1943275B1 (Activotec SPP Limited, priority 2005, dated 2010):

Tests used:
[1] = general procedure: Fmoc solid-phase peptide synthesis; PL-PEGA resin (Polymer Labs) with HMPA handle; HCTU/DIPEA; conditions: whole synthesis, scale of the general procedure 0.2 mmol
[2] = general procedure: Fmoc solid-phase peptide synthesis; HMPA-PEGA resin; HCTU/DIPEA; conditions: whole synthesis, overall, scale of the general procedure 0.2 mmol

| Substance | difficulty met [1] | isolated yield [2] |
| --- | --- | --- |
| PEPTIDE1{H.[NH-NH-CH(CH3)-CO].E.G.T.F.T.S.D.V.S.S.Y.L.E.G.Q.A.A.K.E.F.I.A.W.L.V.K.G.R.G}$$$$V2.0 | Fmoc release of the resin showed a failed coupling |  |
| PEPTIDE1{[CO-L-Ala-L-His-NH2].E.G.T.F.T.S.D.V.S.S.Y.L.E.G.Q.A.A.K.E.F.I.A.W.L.V.K.G.R.G}$$$$V2.0 |  | about 10% overall yield |

Strings that start with PEPTIDE1 are HELM notation: dots part the residues, brackets hold end groups and non-standard residues.
